Reference: publication PMC11079029, “Intramolecular autoinhibition regulates the selectivity of PRPF40A tandem WW domains for proline-rich motifs” (Nature Communications, 2024)
Results are given in words; binding and its absence hold for the method and conditions named.

By UniProt entry, the sequences of proteins in these tests, tags left out. Residues count along the entry.
UniProt O75400, residues 141-236: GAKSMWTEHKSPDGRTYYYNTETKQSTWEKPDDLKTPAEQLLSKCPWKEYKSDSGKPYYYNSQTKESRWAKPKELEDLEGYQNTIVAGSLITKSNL

Assays:
[1] = target: T1, GB1-SF1(342-357) 16-mer peptide; assay: ITC; MicroCal PEAQ-ITC, 25 °C, 20 mM sodium phosphate pH 6.5, 100 mM NaCl; PRPF40A constructs and GB1-tagged SF1 16-mer peptides; who was in the syringe is not stated for these panels (Fig. 2B, Fig. 5C); one-site model; both purified
T1 sequence: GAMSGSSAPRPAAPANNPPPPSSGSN

[2] = target: T2, GB1-SF1(387-402) 16-mer peptide; assay: as above
T2 sequence: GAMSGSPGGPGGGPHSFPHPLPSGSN

**Q.** For “PRPF40A WW12 (tandem WW domains, residues 141-236) (from UniProt O75400 141-236) (domain or fragment)”, which binding [1] is on record?
**A.** Its binding is “no binding (tested: cell around 20–40 uM, syringe 200–500 uM)”.

**Q.** What about the binding [2] of the same substance?
**A.** The binding was “no binding (tested: cell around 20–40 uM, syringe 200–500 uM)”.
